In paper doi:10.1101/2024.09.30.615192:
Results are given in words; binding and its absence hold for the method and conditions named. Binding seen in cells or lysates may run through a third protein. These calls come from enrichment with a bait or labelling near it, and not all partners need be listed.

Assays:
SLC9A6 (human) = biological target: T1, SLC9A6 (human) (UniProt Q92581); assay: affinity purification with mass spectrometry
T1 sequence: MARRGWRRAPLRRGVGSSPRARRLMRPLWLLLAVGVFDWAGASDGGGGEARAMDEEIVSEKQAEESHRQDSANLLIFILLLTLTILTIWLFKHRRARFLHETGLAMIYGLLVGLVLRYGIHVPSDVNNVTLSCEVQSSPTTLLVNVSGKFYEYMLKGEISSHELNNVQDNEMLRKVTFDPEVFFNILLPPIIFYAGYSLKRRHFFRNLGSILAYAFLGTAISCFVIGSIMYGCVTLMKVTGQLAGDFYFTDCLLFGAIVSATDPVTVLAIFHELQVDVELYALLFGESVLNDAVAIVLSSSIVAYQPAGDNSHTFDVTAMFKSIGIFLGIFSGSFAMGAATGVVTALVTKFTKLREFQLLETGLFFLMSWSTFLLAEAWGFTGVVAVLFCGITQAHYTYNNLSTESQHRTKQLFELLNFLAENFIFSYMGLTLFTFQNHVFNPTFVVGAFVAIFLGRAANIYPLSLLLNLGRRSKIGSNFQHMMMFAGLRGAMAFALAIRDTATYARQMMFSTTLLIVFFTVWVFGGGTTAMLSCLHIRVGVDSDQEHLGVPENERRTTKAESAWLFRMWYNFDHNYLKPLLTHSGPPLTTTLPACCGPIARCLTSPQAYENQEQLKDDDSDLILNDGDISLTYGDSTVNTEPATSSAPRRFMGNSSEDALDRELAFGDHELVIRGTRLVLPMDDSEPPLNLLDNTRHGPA

SLC9A9 (human) = biological target: T2, SLC9A9 (human) (UniProt Q8IVB4); assay: affinity purification with mass spectrometry
T2 sequence: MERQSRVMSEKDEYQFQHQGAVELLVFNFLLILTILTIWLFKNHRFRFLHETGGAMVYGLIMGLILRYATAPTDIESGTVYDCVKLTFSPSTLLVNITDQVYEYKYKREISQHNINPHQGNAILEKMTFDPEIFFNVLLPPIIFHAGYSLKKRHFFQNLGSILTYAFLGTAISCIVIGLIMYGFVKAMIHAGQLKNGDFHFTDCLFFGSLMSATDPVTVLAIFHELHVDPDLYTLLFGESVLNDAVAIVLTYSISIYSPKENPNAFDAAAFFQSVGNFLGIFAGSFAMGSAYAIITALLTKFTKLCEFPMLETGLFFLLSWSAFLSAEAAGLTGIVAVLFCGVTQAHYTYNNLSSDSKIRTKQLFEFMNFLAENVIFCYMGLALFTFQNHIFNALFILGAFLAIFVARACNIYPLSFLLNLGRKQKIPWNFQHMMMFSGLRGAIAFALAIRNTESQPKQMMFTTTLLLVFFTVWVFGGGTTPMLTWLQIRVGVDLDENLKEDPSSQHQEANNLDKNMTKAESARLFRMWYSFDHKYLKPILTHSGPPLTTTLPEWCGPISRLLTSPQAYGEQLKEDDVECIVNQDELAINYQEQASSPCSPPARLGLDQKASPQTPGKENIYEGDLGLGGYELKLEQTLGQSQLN

binding (SLC9A6 (human)): binds
binding (SLC9A9 (human)): binds
B1: calcium-binding protein CHP1 (protein, UniProt Q99653 1-195)
chain: MGSRASTLLRDEELEEIKKETGFSHSQITRLYSRFTSLDKGENGTLSREDFQRIPELAINPLGDRIINAFFPEGEDQVNFRGFMRTLAHFRPIEDNEKSKDVNGPEPLNSRSNKLHFAFRLYDLDKDEKISRDELLQVLRMMVGVNISDEQLGSIADRTIQEADQDGDSAISFTEFVKVLEKVDVEQKMSIRFLH
